pIC50: −log10 of the molar value.
What was measured:
[1] = target: Voltage-gated inwardly rectifying potassium channel KCNH2 (Homo sapiens, UniProt Q12809); test: Inhibition of human ERG by IonWorks assay
physchem = settings: buffer

Protein sequences, listed by entry. Tags and fused reporters are not part of them. Lines headed by an entry give the natural chain unless they say otherwise; changes in a name come on top.
UniProt Q12809: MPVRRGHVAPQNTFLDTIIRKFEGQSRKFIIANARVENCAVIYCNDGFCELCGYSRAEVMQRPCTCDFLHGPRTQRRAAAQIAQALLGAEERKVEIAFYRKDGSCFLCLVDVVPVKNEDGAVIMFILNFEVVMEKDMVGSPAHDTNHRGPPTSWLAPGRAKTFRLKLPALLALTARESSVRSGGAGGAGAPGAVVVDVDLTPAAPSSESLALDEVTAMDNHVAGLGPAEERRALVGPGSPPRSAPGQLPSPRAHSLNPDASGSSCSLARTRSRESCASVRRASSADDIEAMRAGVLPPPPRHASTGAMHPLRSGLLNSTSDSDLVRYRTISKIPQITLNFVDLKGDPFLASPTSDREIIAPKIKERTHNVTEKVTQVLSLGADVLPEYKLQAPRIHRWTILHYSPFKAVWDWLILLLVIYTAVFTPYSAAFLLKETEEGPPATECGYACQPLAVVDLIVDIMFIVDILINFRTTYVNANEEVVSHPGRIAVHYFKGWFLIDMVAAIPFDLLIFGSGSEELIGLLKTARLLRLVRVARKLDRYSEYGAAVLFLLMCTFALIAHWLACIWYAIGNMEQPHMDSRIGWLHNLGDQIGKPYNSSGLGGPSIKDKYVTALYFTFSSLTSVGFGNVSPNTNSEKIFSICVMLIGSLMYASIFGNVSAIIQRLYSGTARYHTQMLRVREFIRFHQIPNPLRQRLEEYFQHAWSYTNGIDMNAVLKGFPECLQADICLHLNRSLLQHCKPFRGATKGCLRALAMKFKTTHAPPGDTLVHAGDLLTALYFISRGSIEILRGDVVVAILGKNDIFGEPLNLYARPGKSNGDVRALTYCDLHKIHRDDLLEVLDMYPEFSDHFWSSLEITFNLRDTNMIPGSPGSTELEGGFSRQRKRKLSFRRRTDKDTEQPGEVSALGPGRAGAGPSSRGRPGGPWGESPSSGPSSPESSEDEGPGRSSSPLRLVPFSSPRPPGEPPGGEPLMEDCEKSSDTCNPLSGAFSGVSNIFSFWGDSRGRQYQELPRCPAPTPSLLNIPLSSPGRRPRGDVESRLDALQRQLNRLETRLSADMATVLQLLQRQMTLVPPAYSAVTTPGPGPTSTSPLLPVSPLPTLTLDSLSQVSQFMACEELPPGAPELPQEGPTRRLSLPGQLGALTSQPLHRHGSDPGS

Row | SMILES | pIC50 [1] | solubility thermodynamic at 24 h (physchem) [µM]
1 | Fc1ccc(CN2CCN(c3ccc4nnc(C(F)(F)F)n4n3)CC2)cc1 | 4.97 | –
2 | OC1(c2ccc(F)cc2)CCN(c2ccc3nnc(C(F)(F)F)n3n2)CC1 | – | < 0.9

From ChEMBL document CHEMBL2346572, “Discovery of AZD3514, a small-molecule androgen receptor downregulator for treatment of advanced prostate cancer” (Bioorg Med Chem Lett, 2013)
